Experimental data reported in PubChem BioAssay AID504444 (National Center for Advancing Translational Sciences (NCATS), 2011).
Screen size: about 360,000 compounds; about 7,500 (2.1%) were called active. Inconclusive means that the source gave no clear call. Such entries were picked first, then a sample of the others. Calls come from the whole dose curve; as a rule, active = well fitted inhibition curve with a large enough effect; inconclusive = small, poorly fitted or top-dose-only effect, or effect the other way; inactive = flat fitted curve, though single readings scatter. Potencies of inconclusive entries are doubtful fits and often do not repeat.

test: Nrf2 qHTS screen for inhibitors; conditions: A549 ARE-Fluc reporter, luciferase luminescence, 18-24 h; activity change, negative = inhibition: at 46 µM (top of the series); note: nearly all actives have a fitted effect of over 60% in size
Method in brief: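 A549 ARE_Fluc cells (5000/well, 5% FBS OPTI-MEM) pre-incubated 2 h, then treated with compounds 18-24 h at 37C/5% CO2 in concentration-response. CellTiter-Fluor viability read first; BugLite luciferase luminescence after 15 min at room temperature gives Nrf2 activity.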
% is set by controls: 0 for no effect and ±100 for the full control effect; potency is the fitted concentration of half-maximal effect.

SMILES	Potency	activity change, negative = inhibition
O=[N+]([O-])c1cccnc1N1CCC(c2cc(-c3ccc(Cl)cc3Cl)n[nH]2)CC1	active: 18.4 µM	–
C/C=C\C=C\C(=O)Nc1cccc(C2=NOC3(C2)C[C@H](C(N)=O)N(C(=O)c2ccccc2C(=O)c2ccccc2)C3)c1 (stereo partly drawn)	–	inactive: -2.75%
COc1cc2cc(C(=O)N3CCN(c4ccccc4OC)CC3)[nH]c2cc1OC	inconclusive: 32.6 µM [falling, partial curve, poor fit]	–
O=C(CCNC(=O)c1ccc(Br)cc1)NNC(=O)c1ccccc1O	–	inactive: -4.79%
Cc1cnc(NC(=O)c2cc(-c3ccccc3)nn2-c2ccccc2)s1	inconclusive: 29.1 µM [falling, single point]	–
CCOc1ccc2nc(NC(=O)COc3ccc(N(C)S(=O)(=O)c4ccc(C)cc4)cc3)sc2c1	inconclusive: 3.66 µM [falling, full curve, poor fit]	–
COc1ccccc1N1CCN(C2C(=O)c3ccccc3N2C(C)=O)CC1 (stereo not drawn)	inconclusive: 29.1 µM [activator, single point]	–
O=C1C=C(NCc2ccc(Cl)cc2Cl)C2(CCCCC2)O1	inconclusive: 1.46 µM [activator, full curve, poor fit]	–
Cc1ccc(S(=O)(=O)Nc2cc(C)cn(Cc3ccc(F)cc3)c2=O)cc1	inconclusive: 20.6 µM [falling, single point]	–
CCCCNC(=O)c1ccc(Cn2c(=S)[nH]c3c([nH]c4ccc(OC)cc43)c2=O)cc1	inconclusive: 29.1 µM [falling, single point]	–
CC(NC(N)=O)C(=O)NCC(=O)OCc1ccccc1 (stereo not drawn)	inconclusive: 29.1 µM [activator, partial curve, poor fit]	–
C=CCn1c(SCC(=O)Nc2nncs2)nnc1-c1ccco1	inconclusive: 10.3 µM [activator, partial curve]	–
N#C/C(=C\c1ccccc1OCc1ccc(C(=O)O)cc1)C(=O)Nc1ccc(O)cc1	–	inactive: -10.6%
CCc1nc2ccccc2c(C(=O)OCC(=O)Nc2ccc(S(=O)(=O)N3CCOCC3)cc2)c1C	inconclusive: 15.8 µM [falling, single point]	–
O=C(Nc1ccccc1)c1ccc2nsnc2c1	inconclusive: 0.461 µM [activator, partial curve]	–
CCCn1c(=O)c2[nH]c(C3CCCC3)nc2n(CCC)c1=O	inconclusive: 23.1 µM [falling, single point]	–
Cn1cnc2cc(NCc3ccccc3Cl)ccc21	inconclusive: 5.8 µM [activator, partial curve]	–
Cc1c(NC(=O)CSCc2ccc(Br)cc2)c(=O)n(-c2ccccc2)n1C	inconclusive: 18.4 µM [falling, single point]	–
CCOP(=O)(OCC)/C(C#N)=C/c1ccc(-c2ccc(F)cc2F)o1	–	inactive: -28.8%
COc1cc(/C=C/C(=O)OCC(=O)NC2CC2)cc(S(=O)(=O)N2CCc3ccccc32)c1OC	inconclusive: 13 µM [falling, partial curve, poor fit]	–
CNc1ccccc(-c2ccc3ccccc3n2)c1=O	inconclusive: 6.51 µM [activator, partial curve]	–

SMILES	Potency	activity change, negative = inhibition
CC1CC2=C(NC(=S)NC2c2ccc(F)cc2)/C(=C/c2ccc(F)cc2)C1 (stereo not drawn)	inconclusive: 20.6 µM [falling, single point]	–
O=C(c1ccc2c(c1)N(Cc1ccc(Cl)cc1)C(=O)c1ccccc1S2(=O)=O)N1CCCCCC1	inconclusive: 29.1 µM [falling, single point]	–
COc1ccc(-c2csc(NC(=O)Cc3ccccc3F)n2)c(OC)c1	inconclusive: 18.4 µM [falling, partial curve, poor fit]	–
NC(=O)CC(NC(=O)c1ccccc1)c1ccc(NCCc2cccc(F)c2)c([N+](=O)[O-])c1 (stereo not drawn)	inconclusive: 20.6 µM [falling, single point]	–
C=CCn1c(SCC(=O)N2CCN(c3ccc(F)cc3)CC2)nnc1-c1cccs1	inconclusive: 18.4 µM [falling, single point]	–
Cc1ccc(-c2onc(C)c2C)cc1S(=O)(=O)NCc1cccs1	–	inactive: -7.5%
Cc1ccc(C(=O)CN2C(=O)NC3(CCCCCC3)C2=O)c(C)c1	inconclusive: 29.1 µM [activator, single point]	–
CCc1nn(CC(=O)Nc2ccc(C)c(F)c2)c(=O)c2cc3cc(C)ccc3n12	inconclusive: 6.51 µM [activator, partial curve]	–
Cc1cccc(C(C(=O)NC2CCCC2)N(C(=O)c2csnn2)C2CCCC2)c1 (stereo not drawn)	inconclusive: 8.2 µM [activator, partial curve]	–
c1ccc(C(c2nnnn2Cc2ccco2)N2CCN(c3nc4ccccc4s3)CC2)cc1 (stereo not drawn)	inconclusive: 29.1 µM [falling, single point]	–
Cn1c(SCC(=O)NCc2ccco2)nnc1-c1c[nH]c2ccccc12	inconclusive: 9.2 µM [activator, partial curve, poor fit]	–
O=C(NCC(=O)N1CCN(c2ncc(C(F)(F)F)cc2Cl)CC1)c1ccc(Br)o1	inconclusive: 20.6 µM [falling, partial curve, poor fit]	–
CCOC(=O)C(C)n1cnc2c(nnn2-c2cccc(OC)c2)c1=O (stereo not drawn)	inconclusive: 8.2 µM [activator, partial curve, poor fit]	–
S=C(NCCc1ccccc1)NCCc1ccccc1	–	inactive: 25%
CCN(CC(=O)Nc1ccccc1OC)C(=O)c1ccc(N(C)S(=O)(=O)c2ccc(C)cc2)cc1	inconclusive: 23.1 µM [falling, partial curve, poor fit]	–
O=C(CCOc1ccccc1)Nc1cccc(S(=O)(=O)Nc2ccccc2Cl)c1	inconclusive: 29.1 µM [falling, single point]	–
CCOC(=O)C1(CCOc2ccccc2)CCN(Cc2cc(OC)c3c(c2)OCO3)CC1	inconclusive: 23.1 µM [falling, single point]	–
CCCCNC(=O)NNc1nc(Cl)cc(C)c1C#N	inconclusive: 32.6 µM [falling, single point]	–
O=C(CSc1nc(-c2ccccc2)c(-c2ccccc2)[nH]1)Nc1ccc2c(c1)OCO2	–	inactive: -22.9%
CCN(C(=O)COC(=O)c1ccccc1Cc1ccccc1)c1c(N)n(Cc2ccccc2)c(=O)[nH]c1=O	inconclusive: 18.4 µM [falling, partial curve, poor fit]	–
Cn1c(N)c(C(=O)COC(=O)c2ccc3c(c2)OCCO3)c(=O)n(C)c1=O	–	inactive: 0.475%

Copied from the list.
CCN(CC(=O)Nc1ccccc1OC)C(=O)c1ccc(N(C)S(=O)(=O)c2ccc(C)cc2)cc1 | Potency: inconclusive: 23.1 µM [falling, partial curve, poor fit]
Cn1c(SCC(=O)NCc2ccco2)nnc1-c1c[nH]c2ccccc12 | Potency: inconclusive: 9.2 µM [activator, partial curve, poor fit]
O=C(NCC(=O)N1CCN(c2ncc(C(F)(F)F)cc2Cl)CC1)c1ccc(Br)o1 | Potency: inconclusive: 20.6 µM [falling, partial curve, poor fit]

More structures:

SMILES	Potency	activity change, negative = inhibition
CC(=O)N1CCN(c2ccc(Nc3ncnc4c3oc3ccccc34)cc2)CC1	inconclusive: 29.1 µM [falling, single point]	–
O=C(C1=C(O)C(=O)N(CCc2ccccc2)C1c1cccs1)c1ccco1 (stereo not drawn)	inconclusive: 29.1 µM [falling, partial curve, poor fit]	–
Cc1ccc(C(=O)N(CC(C)C)c2nc3ccccc3s2)o1	inconclusive: 1.16 µM [activator, full curve, poor fit]	–
Cc1cc(C)nc(SCC(=O)Nc2ncc(Cc3ccc(Cl)c(Cl)c3)s2)n1	inconclusive: 13 µM [falling, partial curve, poor fit]	–
CCC[C@@H](CN[C@@H](CNC)[C@H](C)CC)NCC1CCC(C(C)(C)C)CC1 (stereo partly drawn)	–	inactive: -19%
COc1ccc2nc(-c3ccccc3)nc(SC)c2c1	inconclusive: 29.1 µM [activator, single point]	–
Cn1nc(C(=O)OCC(=O)Nc2ccccc2[N+](=O)[O-])c2ccccc2c1=O	–	inactive: 5.22%
CCc1ccc(NC2=CC(=O)C(=O)c3ccccc32)cc1	inconclusive: 4.61 µM [activator, single point]	–
COc1cccc(NC(=O)CN(C)C(=O)[C@@H]2CCCN2C(=O)c2cccs2)c1	inconclusive: 0.13 µM [falling, full curve, poor fit]	–
CC(C)CCN(C(=O)Cc1ccc(Cl)c(Cl)c1)c1c(N)n(Cc2ccccc2)c(=O)[nH]c1=O	inconclusive: 29.1 µM [falling, single point]	–
COCCCNC(=O)c1cn(CC(C)C)c(=O)c2c1c1ccccc1n2C	inconclusive: 29.1 µM [activator, single point]	–
Cc1c(N/N=C(\C#N)C(=O)c2ccccc2)c(=O)n(-c2ccccc2)n1C	inconclusive: 20.6 µM [falling, single point]	–
COc1cc(OC)c(NS(=O)(=O)c2cc3c(cc2C)NC(=O)CO3)cc1Cl	–	inactive: 1.09%
COc1ccc(CCNc2oc(COc3ccc(Br)cc3)nc2C#N)cc1OC	inconclusive: 20.6 µM [falling, partial curve]	–
O=C(CSc1nc2ccccc2c(=O)n1CCCN1CCOCC1)c1c[nH]c2ccccc12	inconclusive: 25.9 µM [falling, partial curve, poor fit]	–
O=C(Nc1nc2c(s1)CCCC2)c1ccc2ncsc2c1	inconclusive: 1.46 µM [activator, partial curve]	–
CC(=O)c1ccc(N2CCN(C(=O)C3CCN(S(=O)(=O)c4ccc(Br)s4)CC3)CC2)cc1	inconclusive: 29.1 µM [falling, single point]	–
Cc1oc2c(c1C(=O)N1CCOCC1)C(=O)c1ccccc1C2=O	active: 16.4 µM	–
CC1CCCN(C(=O)c2cc3c(=O)n4ccccc4nc3s2)C1 (stereo not drawn)	inconclusive: 16.4 µM [activator, partial curve]	–
COCCCNC(=S)NNC(=O)c1ccccn1	inconclusive: 20.6 µM [falling, single point]	–
c1ccc(CNc2nc(-c3ccccc3)nc3ccccc23)cc1	inconclusive: 20.6 µM [activator, single point]	–
